Test results as given in article PMC12871931, “The importin‐alpha superfamily engages in ethylene signaling by shuttling ETHYLENE INSENSITIVE 2 from the endoplasmic reticulum to the nucleus” (The Febs Journal, 2025).
Results are given in words; binding and its absence hold for the method and conditions named. For some assays here: In cells and extracts the contact can be indirect. Some binding calls cover weakened binding; strength is not graded here. For some assays here: Where a sequence is shown, tags or fusion partners need not be part of it.

Sequences of proteins named here, by UniProt entry; tags and fusion partners are left off.
UniProt Q96321: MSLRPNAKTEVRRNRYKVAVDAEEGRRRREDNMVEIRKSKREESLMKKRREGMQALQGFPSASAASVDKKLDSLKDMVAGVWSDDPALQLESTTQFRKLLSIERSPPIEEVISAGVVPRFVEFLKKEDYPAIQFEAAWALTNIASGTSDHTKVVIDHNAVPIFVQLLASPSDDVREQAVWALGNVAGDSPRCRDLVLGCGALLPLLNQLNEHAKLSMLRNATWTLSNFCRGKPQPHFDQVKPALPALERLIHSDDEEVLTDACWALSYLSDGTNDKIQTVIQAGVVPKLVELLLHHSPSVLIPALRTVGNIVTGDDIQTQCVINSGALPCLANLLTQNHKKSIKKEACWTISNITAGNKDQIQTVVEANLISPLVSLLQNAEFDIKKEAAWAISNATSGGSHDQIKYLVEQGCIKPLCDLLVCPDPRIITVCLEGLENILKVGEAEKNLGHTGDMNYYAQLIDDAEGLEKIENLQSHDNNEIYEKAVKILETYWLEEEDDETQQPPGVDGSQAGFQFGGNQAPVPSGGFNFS
UniProt F4JL11: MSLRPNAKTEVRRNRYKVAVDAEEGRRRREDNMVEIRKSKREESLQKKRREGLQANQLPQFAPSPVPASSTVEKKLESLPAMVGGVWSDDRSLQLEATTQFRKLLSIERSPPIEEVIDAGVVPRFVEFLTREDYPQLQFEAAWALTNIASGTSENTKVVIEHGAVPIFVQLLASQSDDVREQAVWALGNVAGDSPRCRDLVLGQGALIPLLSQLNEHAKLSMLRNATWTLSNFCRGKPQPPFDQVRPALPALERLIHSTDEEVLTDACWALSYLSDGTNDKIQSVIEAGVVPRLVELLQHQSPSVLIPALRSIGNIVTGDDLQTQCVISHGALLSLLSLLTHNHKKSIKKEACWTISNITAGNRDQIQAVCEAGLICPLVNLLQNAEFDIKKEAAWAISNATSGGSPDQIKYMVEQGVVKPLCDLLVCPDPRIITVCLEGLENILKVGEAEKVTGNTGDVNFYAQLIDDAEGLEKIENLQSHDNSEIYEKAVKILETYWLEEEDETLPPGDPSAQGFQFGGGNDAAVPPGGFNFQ
UniProt O04294: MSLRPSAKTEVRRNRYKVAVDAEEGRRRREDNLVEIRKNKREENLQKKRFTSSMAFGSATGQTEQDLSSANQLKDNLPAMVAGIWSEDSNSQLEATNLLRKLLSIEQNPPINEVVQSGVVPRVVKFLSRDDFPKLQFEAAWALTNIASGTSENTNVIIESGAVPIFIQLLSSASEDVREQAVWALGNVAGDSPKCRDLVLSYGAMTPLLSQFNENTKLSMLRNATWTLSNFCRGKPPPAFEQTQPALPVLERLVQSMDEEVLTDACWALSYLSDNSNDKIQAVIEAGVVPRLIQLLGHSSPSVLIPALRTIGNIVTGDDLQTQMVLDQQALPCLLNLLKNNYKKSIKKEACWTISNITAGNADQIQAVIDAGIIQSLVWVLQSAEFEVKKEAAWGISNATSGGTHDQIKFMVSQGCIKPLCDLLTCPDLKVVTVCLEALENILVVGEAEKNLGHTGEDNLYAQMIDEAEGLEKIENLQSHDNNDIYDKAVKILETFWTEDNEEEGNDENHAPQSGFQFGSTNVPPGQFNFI
UniProt O80480: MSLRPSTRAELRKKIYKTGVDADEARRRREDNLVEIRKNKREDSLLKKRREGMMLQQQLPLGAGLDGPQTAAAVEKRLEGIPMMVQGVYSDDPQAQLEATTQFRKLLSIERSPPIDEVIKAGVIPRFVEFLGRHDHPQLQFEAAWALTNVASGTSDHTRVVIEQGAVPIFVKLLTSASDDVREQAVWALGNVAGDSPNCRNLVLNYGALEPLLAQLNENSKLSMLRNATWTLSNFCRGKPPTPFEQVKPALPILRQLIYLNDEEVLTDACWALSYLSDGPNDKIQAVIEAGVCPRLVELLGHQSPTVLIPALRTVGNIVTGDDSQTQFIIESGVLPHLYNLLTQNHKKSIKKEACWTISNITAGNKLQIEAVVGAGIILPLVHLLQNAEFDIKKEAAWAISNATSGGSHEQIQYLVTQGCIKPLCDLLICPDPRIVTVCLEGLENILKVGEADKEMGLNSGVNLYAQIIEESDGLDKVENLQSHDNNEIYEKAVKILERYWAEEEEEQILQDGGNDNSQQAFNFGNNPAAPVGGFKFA

Assays:
[1] = molecular target: T1, EIN2C^479–1294 fused to Cerulean (Arabidopsis thaliana) (UniProt Q9S814); assay: FRET or BRET; in planta FLIM-FRET in transiently transformed N. benthamiana epidermal leaf cells; Cerulean fusion as donor, YFP fusions as acceptors; cytosol, ER or nucleus (IMPα5-YFP and IMPα6-YFP: nuclei only)
T1 sequence: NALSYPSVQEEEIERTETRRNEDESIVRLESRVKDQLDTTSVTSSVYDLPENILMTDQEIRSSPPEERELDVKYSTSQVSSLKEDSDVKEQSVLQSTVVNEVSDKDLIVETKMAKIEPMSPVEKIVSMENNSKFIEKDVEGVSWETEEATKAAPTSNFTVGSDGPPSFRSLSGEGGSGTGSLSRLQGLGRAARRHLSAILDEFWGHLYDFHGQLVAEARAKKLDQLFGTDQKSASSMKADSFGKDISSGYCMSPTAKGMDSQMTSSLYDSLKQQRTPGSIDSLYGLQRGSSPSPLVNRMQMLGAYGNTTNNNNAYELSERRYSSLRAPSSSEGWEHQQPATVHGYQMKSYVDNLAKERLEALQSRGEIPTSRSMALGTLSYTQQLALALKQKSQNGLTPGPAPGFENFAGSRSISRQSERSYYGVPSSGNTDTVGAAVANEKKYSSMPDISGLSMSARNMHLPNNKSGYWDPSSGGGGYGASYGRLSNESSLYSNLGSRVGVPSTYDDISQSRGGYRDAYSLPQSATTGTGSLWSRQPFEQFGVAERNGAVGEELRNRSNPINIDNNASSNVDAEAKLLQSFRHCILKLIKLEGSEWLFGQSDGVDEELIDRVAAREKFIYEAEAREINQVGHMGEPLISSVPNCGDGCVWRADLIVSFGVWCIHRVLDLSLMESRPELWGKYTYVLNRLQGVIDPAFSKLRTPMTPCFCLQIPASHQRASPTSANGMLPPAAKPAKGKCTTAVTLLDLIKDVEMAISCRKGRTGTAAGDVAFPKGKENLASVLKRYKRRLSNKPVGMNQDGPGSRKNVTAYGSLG

[2] = molecular target: T2, TAMRA‐NOP‐1 (EIN2 NLS peptide, N‐terminally labeled with 5‐TAMRA) (Arabidopsis thaliana); assay: fluorescence polarisation; direct titration: TAMRA-NOP-1 constant at 250 nM, IMPα protein concentration varied; 50 μL samples; LS55 spectrometer; Kd by Logistic Fit in Origin; three independent measurements; both purified
T2 sequence (peptide, 5-TAMRA (5-carboxytetramethylrhodamine) on the N-terminus): LKRYKRRL

| binding [1] | binding [2] | Substance |
| --- | --- | --- |
| binds | – | IMPα1 fused to YFP (from UniProt Q96321 1-532) |
| binds | – | IMPα2 fused to YFP (from UniProt F4JL11 1-535) |

More lines, now with the values behind:

| Substance | binding [1] | binding [2] |
| --- | --- | --- |
| IMPα3 fused to YFP (from UniProt O04294 1-531) | binds | – |
| IMPα4 fused to YFP (from UniProt O80480 1-538) | binds | – |
| importin α1 (IMPα1), Arabidopsis thaliana, recombinant (from UniProt Q96321 1-532) | – | binds |
